No constants are given. Whether binding was seen depends on the method and setting. Some entries that bind do so weakly or less than the wild type.

Protein sequences, listed by entry. Tags and fused reporters are not part of them. Lines headed by an entry give the natural chain unless they say otherwise; changes in a name come on top.
UniProt Q8NHL6: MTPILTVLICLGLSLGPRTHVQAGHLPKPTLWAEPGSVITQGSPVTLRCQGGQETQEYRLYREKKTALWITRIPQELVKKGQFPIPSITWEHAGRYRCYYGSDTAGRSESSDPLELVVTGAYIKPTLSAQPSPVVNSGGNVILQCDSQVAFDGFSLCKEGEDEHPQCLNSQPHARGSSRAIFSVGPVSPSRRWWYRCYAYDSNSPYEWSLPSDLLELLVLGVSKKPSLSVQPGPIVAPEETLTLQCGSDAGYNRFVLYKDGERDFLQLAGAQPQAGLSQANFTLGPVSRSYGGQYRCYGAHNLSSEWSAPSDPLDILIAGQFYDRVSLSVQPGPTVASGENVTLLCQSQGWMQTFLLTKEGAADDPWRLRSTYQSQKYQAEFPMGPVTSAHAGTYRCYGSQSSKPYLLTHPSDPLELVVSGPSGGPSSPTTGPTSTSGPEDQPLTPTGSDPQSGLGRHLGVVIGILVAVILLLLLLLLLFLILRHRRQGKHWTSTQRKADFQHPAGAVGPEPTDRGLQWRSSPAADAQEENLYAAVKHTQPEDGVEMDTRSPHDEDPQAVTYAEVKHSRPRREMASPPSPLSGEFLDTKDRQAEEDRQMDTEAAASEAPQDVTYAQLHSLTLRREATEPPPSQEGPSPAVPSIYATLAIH
UniProt Q8N423: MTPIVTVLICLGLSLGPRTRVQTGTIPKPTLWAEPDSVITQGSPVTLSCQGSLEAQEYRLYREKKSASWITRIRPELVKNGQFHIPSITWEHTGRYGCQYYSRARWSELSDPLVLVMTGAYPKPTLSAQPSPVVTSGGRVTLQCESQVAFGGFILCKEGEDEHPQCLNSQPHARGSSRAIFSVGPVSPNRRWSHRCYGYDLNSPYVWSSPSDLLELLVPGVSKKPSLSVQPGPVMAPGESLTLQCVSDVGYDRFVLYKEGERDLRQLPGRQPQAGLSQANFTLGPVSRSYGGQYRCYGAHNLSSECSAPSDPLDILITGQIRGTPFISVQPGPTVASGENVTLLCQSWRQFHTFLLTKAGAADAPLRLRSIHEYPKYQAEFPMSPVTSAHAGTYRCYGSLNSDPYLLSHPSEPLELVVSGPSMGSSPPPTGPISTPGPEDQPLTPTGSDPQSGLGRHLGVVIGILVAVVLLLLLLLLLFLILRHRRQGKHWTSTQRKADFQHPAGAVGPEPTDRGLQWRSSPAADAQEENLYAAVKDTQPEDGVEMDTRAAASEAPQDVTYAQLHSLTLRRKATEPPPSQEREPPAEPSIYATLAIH

The target in assay [1] is human LILRB1 expressed on cells (human) (UniProt Q8NHL6). As to the kind of experiment: flow cytometry, CHO-LILRB1 cells.
Assay [2] concerns the target human LILRB2 expressed on cells (human) (UniProt Q8N423). As to the kind of experiment: flow cytometry, CHO-LILRB2 cells.
For assay [3], the target named is human LILRB1 expressed on cells (human) (UniProt Q8NHL6). As to the kind of experiment: flow cytometry, CHO-LILRB1 cells; blocked ligand: APC HLA-G trimer tetramer.

B1: #45 (antibody, human IgG1, V domains shown)
VH: QIQLLQSGPELKKPGETVKISCKASGYTFTDYSMHWVKQAPGKGLKWMGWINTETGEPTYADDFKGRFAFSLETSASTAYLQINNLKNEDTATYFCARVVRRGYFDVWGAGTTVTVSS
VL: DIQMTQSPASLSASVGETVTITCRASGNIHNYLAWYQQKQGKSPQVLVYNAKTLADGVPSRFSGSGSGTQYSLKINSLQPEDFGSYYCQHFWSTPFTFGSGTKLEIK
B1: the binding result in assay [1] was “binds”.

B2: #16 (antibody, human IgG1, V domains shown)
VH: EVQLQQSGAELMKPGASVKISCKATGNTFSSYWIEWVKQRPGHDLEWIGEILPGSGSTNYNEKFKGKATFTADTSSNTAYMQLNSLTSEDSAVYYCARSGAGGYDSGAFAYWGQGTLVTVSA
VL: DIEMTQSPASLAVSLGQRATISCRASESIDSYGNSFMHWYQQKPGQPPKLLIYRTSNLESGIPARFSGSGSRTDFTLTINPVEADDVATYYCQQSNEDPWTFGGGTKLEIK
As to B2, the binding result in assay [1], in assay [2] and in assay [3] was “binds” each time.

B3: #40 (antibody, human IgG1, V domains shown)
VH: EVQLQQSGAELMKPGASVKISCKTTGNTFSSYWIEWVKQRPGHDLEWIGEILPGRGSTNNNEKFKGKAPFTADTSSNTAYMQLNSLTSEDSAVYYCARSGGGGYDSGAFAYWGQGTLVTVSA
VL: DIVLTQSPASLAVSLGQRATISCRASESVDTYGNSFMHWYQQKPGQPPKLLIYRTSNLESGIPARFSGSGSRTDFTLTINPVEADDVATYYCQQSNEDPWTFGGGTKLEIK
On to B3, for which the binding result in assay [1] is given as “binds”.

B4: #21 (antibody, human IgG1, V domains shown)
VH: QVQLQQSGAELMKPGASVKISCKATGSTFSSYWIEWVKQRPGHGLEWIGEILPGSGSTNYNEKFKGKATFTADTSSNTAYMQLSSLTSEDSAVYYCARSGAGGYDSGAFAYWGQGTLVTVSA
VL: DIVLTQSPASLAVSLGQRATISCRASESVDTYGNSFMHWYQQKPGQPPKLLIYRTSNLESGIPARFSGSGSRTDFTLTINPVEADDVATYYCQQSNEDPWTFGGGTKLEIK
Take B4: the binding result in assay [1] and in assay [2] was “binds” throughout.

B5: #29 (antibody, human IgG1, V domains shown)
VH: EVQLQQSGAEVKKPGASVKISCKATGYTFSSYWIEWVKQRPGHGLEWIGEILPGSGSTNYNEKFKGKATFTADTSSNTAYMQLSSLTSEDFTVYYCARSGAGGYDSGAFGYWGQGTLVTVSS
VL: DIVMTQSPASLAVSLGQRATISCRASESIDTYGNSFMHWYQQKPGQPPKLLIYRASNLESGIPARFSGSGSRTDFTLTINPVEADDVATYYCQQSNEDPWTFGGGTKLEIK
Take B5: the binding result in assay [1] and in assay [2] was “binds” in each case.

B6: #18 (antibody, human IgG1, V domains shown)
VH: EVQLQQSGAELMKPGASVKISCKTTGNTFSSYWIEWVKQRPGHDLEWIGEILPGSGSTNYNEKFKGKATFTADTSSNTAYMQLNSLTSEDSAVYYCARSGAGGYDSGAFAYWGQGTLVTVSA
VL: DIVLTQSPASLAVSLGQRATISCRASESVDSYGNSFMHWYQQKPGQPPKLLIYRTSNLESGIPARFSGSGSRTDFTLTINPVEADDVATYYCQQSNEDPWTFGGGTKLEIK
B6: the binding entry in assay [1] and in assay [2] was “binds” throughout.

B7: #41 (antibody, human IgG1, V domains shown)
VH: DVQLQQSGAELMKPGASVKISCKATGYTFSSSWIEWVKQRPGHGLEWIGEILPGSGNTSYNEKFKGKATFTADTSSSAAYMQLSSLTSEDSAVYYCARSGLYYDYGGFAYWGQGTLVTVSA
VL: DIVLTQSPASLAVSLGQRATISCRASESVDTYGNSFMHWYQQKPGQPPKLLIYRTSNLESGIPARFSGSGSRTDFTLTINPVEADDVATYYCQQSNEDPFTFGSGTKLEIK
In the case of B7, the binding result in assay [1] and in assay [2] was “binds” throughout.

B8: #23 (antibody, human IgG1, V domains shown)
VH: QVQMQQPGAELMKPGASVKISCKATGYTFSRYWIEWVKQRPGHGLEWIGEILPGDGSTNYNAKFKGQATFTADTSSNTAYMQFSSLTYEDSAVYYCARSGAGGYDSGAFAYWGQGTLVTVSS
VL: DIVLTQSPASLAVSLGQRATISCRASESVDTYGNSFMHWYQQKPGQPPKLLIYRTSNLESGIPARFSGSGSRTDFTLTINPVEADDVATYYCQQSNEDPWTFGGGTKLEIK
B8: the binding result in assay [1] and in assay [2] was “binds” each time.

B9: #31 (antibody, human IgG1, V domains shown)
VH: QVQMQPFGAELMKPGASVRISCKATGYTFSSSWIEWVKQRPGHGLEWIGEILPGSGTTNYNEKFKGKATFTADTSSNTAYMQLSSLTSEDSAVYYCARSGAGGYDSGAFTYWGQGTLVTVSA
VL: DIVLTQSPASLAVSLGQRATISCRASESIDTYGNSFMHWYQQKPGQPPKLLIYRASNLESGIPARFSGSGSRTDFTLTINPVEADDVATYYCQQSNEDPWTFGGGTKLEIK
Turning to B9, the binding result in assay [1] and in assay [2] was “binds” throughout.

B10: #22 (antibody, human IgG1, V domains shown)
VH: QVQLQQSGAELMKPGASVKISCKATGYTLSSYWIEWVKQRPGHGLEWIGEILPGSGSTNYNEKFKGKATFTADTSSNTAYMQLSSLTSEDSAVYYCARSGAGGYDSGAFAYWGQGTLVTVSA
VL: DIVLTQSPASLAVSLGQRATISCRASESVDTYGNSFMHWYQQKPGQPPKLLIYRTSNLESGIPARFSGSGSRTDFTLTINPVEADDVATYYCQQSNEDPWTFGGGTKLEIK
In the case of B10, the binding entry in assay [1], in assay [2] and in assay [3] was “binds” in each case.

B11: #20 (antibody, human IgG1, V domains shown)
VH: QVQFQQSGVELMKPGASVKISCKATGNTFSNYWIEWVKQRPGHDLEWIGEILPGSGSTNYNEKFKGKATFTADTSSNTAYMQLNSLTSEDSAVYYCARSGAGGYDSGAFAYWGQGTLVTVSA
VL: DIVMTQSPASLAVSLGQRATISCRASESVDSYGNSFMHWYQQKPGQPPKLLIYRTSNLESGIPARFSGSGSRTDFTLTINPVEADDVATYYCQQSNEDPWTFGGGTKLEIK
For B11, the binding entry in assay [1] and in assay [2] was “binds” in each case.

B12: #36 (antibody, human IgG1, V domains shown)
VH: QVQLQQSGAELMKPGASVRISCKATGYTFSSSWIEWVKQRPGHGLEWIGEILPGSGTTNYNEKFKGKATFTADTSSNTAYMQLSSLTSEDSAVYYCARSGAGGYDSGAFTYWGQGTLVTVSA
VL: DIVLTQSPASLAVSLGQRATISCRASESIDTYGNSFMHWYQQKPGQPPKLLIYRASNLESGIPARFSGSGSRTDFTLTINPVEADDVATYYCQQSNEDPWTFGGGTKLEIK
As for B12, the binding entry in assay [1] and in assay [2] was “binds” in each case.

B13: #12 (antibody, human IgG1, V domains shown)
VH: QIQLLQSGAELMKPGASVKISCKATGYTFSNYWIEWVKQRPGHGLEWIGEILPGSGSTNYNEKFKGKATFTADTSSNTAYMQLSSLTSEDSAVYYCARSGAGGYDSGAFAYWGQGTLVTVSS
VL: DIVLTQSPASLAVSLGQRATISCRASESVDSYGNSFMHWYQQKPGQPPKLLIYRTSNLESGIPARFSGSGSRTDFTLTINPVEADDVAAYYCQQSNEDPWTFGGGTKLEIK
With B13, the binding result in assay [1] and in assay [2] was “binds” throughout.

B14: #8 (antibody, human IgG1, V domains shown)
VH: EVQLQQPGAELMKPGASVKISCKATGYTFSSSWTEWVKQRPGHGLEWIGEILPGSGSTNYNEKFKGKATFTADTSSNTAYMQLSSLTSEDSAVYYCARSGAGGYDSGAFAYWGQGTLVTVSA
VL: DIVLTQSPASLAVSLGQRATISCRASESIDTYGNSFMHWYQQKPGQPPKLLIYRTSNLESGIPARFSGSGSRTDFTLTINPVEADDVATYYCQQSNEDPWTFGGGTKLEIK
With B14, the binding entry in assay [1], in assay [2] and in assay [3] was “binds” each time.

B15: #28 (antibody, human IgG1, V domains shown)
VH: EVQLQQSGAELMKPGASVKISCKATGYTFSSYWIEWVKQRPGHGLEWIGEILPGSGSTNYNEKFKGKATFTADTSSNTAYMQLSSLTSEDSAVYYCARSGAGGYDSGAFAYWGQGTLVTVSS
VL: DIVMTQSPASLAVSLGQRATISCRASESVDTYGNSFMHWYQQKPGQPPKLLIYRTSNLESGIPARFSGSGSRTDFTLTINPVEADDVATYYCQQSNEDPWTFGGGTKLEIK
On to B15, for which the binding result in assay [1] and in assay [2] was “binds” throughout.

B16: #35 (antibody, human IgG1, V domains shown)
VH: QVQLQQSGAELMKPGASVRISCKATGYTFSSSWIEWVKQRPGHGLEWIGEILPGSGSTNYNEKFKGKATFTADTSSNTAYMQLSSLTSEDSAVYYCARSGAGGYDSGAFTYWGQGTLVTVSA
VL: DIVLTQSPASLAVSLGQRATISCRASESIDTYGNSFMHWYQQKPGQPPKLLIYRASNLESGIPARFSGSGSRTDFTLTINPVEADDVATYYCQQSNEDPWTFGGGTKLEIK
Regarding B16, the binding result in assay [1] and in assay [2] was “binds” throughout.

B17: #11 (antibody, human IgG1, V domains shown)
VH: EVQLQQSGAELMKPGASVKISCKATGYTFSNYWIEWVKQRPGHGLEWIGEILPGSGSTDYNEKFEGKATFTADTSSNTAYMQLSSLTSEDSAVYYCARSGAGGYDSGAFAYWGQGTLVTVSA
VL: DIQMTQSPASLAVSLGQRATISCRASESVDTYGNSFMHWYQQKPGQPPKLLIYRTSNLESGIPARFSGSGSRTDFTLTINPVEADDVATYYCQQSNEDPWTFGGGTKLEIK
As to B17, the binding result in assay [1], in assay [2] and in assay [3] was “binds” each time.

B18: #17 (antibody, human IgG1, V domains shown)
VH: EVQLQQSGAELMKPGASVKISCKTTGNTFSSYWIEWVKQRPGHDLEWIGEILPGSGSSNYNEKFKGKATFTADTSSNTAYMQLNSLTSEDSAVYYCARSGAGGYDSGAFAYWGQGTLVTVSA
VL: DIVLTQSPASLAVSLGQRATISCRASESVDSYGNSFMHWYQQKPGQPPKLLIYRTSNLESGIPSRFSGSGSRTDFTLTINPVEADDVATYYCQQSNEDPWTFGGGTKLEIK
Take B18: the binding entry in assay [1] and in assay [2] was “binds” each time.

For the origin of these results see patent publication US20250171534A1.
